Measurements as given in publication doi:10.1101/2024.07.02.601773.

B1: THEMIS (protein, UniProt Q8N1K5 1-641)
chain: MALSLEEFVHSLDLRTLPRVLEIQAGIYLEGSIYEMFGNECCFSTGEVIKITGLKVKKIIAEICEQIEGCESLQPFELPMNFPGLFKIVADKTPYLTMEEITRTIHIGPSRLGHPCFYHQKDIKLENLIIKQGEQIMLNSVEEIDGEIMVSCAVARNHQTHSFNLPLSQEGEFYECEDERIYTLKEIVEWKIPKNRTRTVNLTDFSNKWDSTNPFPKDFYGTLILKPVYEIQGVMKFRKDIIRILPSLDVEVKDITDSYDANWFLQLLSTEDLFEMTSKEFPIVTEVIEAPEGNHLPQSILQPGKTIVIHKKYQASRILASEIRSNFPKRHFLIPTSYKGKFKRRPREFPTAYDLEIAKSEKEPLHVVATKAFHSPHDKLSSVSVGDQFLVHQSETTEVLCEGIKKVVNVLACEKILKKSYEAALLPLYMEGGFVEVIHDKKQYPISELCKQFRLPFNVKVSVRDLSIEEDVLAATPGLQLEEDITDSYLLISDFANPTECWEIPVGRLNMTVQLVSNFSRDAEPFLVRTLVEEITEEQYYMMRRYESSASHPPPRPPKHPSVEETKLTLLTLAEERTVDLPKSPKRHHVDITKKLHPNQAGLDSKVLIGSQNDLVDEEKERSNRGATAIAETFKNEKHQK
B2: INPPL1 (protein, UniProt O15357 1-1258)
chain: MASACGAPGPGGALGSQAPSWYHRDLSRAAAEELLARAGRDGSFLVRDSESVAGAFALCVLYQKHVHTYRILPDGEDFLAVQTSQGVPVRRFQTLGELIGLYAQPNQGLVCALLLPVEGEREPDPPDDRDASDGEDEKPPLPPRSGSTSISAPTGPSSPLPAPETPTAPAAESAPNGLSTVSHDYLKGSYGLDLEAVRGGASHLPHLTRTLATSCRRLHSEVDKVLSGLEILSKVFDQQSSPMVTRLLQQQNLPQTGEQELESLVLKLSVLKDFLSGIQKKALKALQDMSSTAPPAPQPSTRKAKTIPVQAFEVKLDVTLGDLTKIGKSQKFTLSVDVEGGRLVLLRRQRDSQEDWTTFTHDRIRQLIKSQRVQNKLGVVFEKEKDRTQRKDFIFVSARKREAFCQLLQLMKNKHSKQDEPDMISVFIGTWNMGSVPPPKNVTSWFTSKGLGKTLDEVTVTIPHDIYVFGTQENSVGDREWLDLLRGGLKELTDLDYRPIAMQSLWNIKVAVLVKPEHENRISHVSTSSVKTGIANTLGNKGAVGVSFMFNGTSFGFVNCHLTSGNEKTARRNQNYLDILRLLSLGDRQLNAFDISLRFTHLFWFGDLNYRLDMDIQEILNYISRKEFEPLLRVDQLNLEREKHKVFLRFSEEEISFPPTYRYERGSRDTYAWHKQKPTGVRTNVPSWCDRILWKSYPETHIICNSYGCTDDIVTSDHSPVFGTFEVGVTSQFISKKGLSKTSDQAYIEFESIEAIVKTASRTKFFIEFYSTCLEEYKKSFENDAQSSDNINFLKVQWSSRQLPTLKPILADIEYLQDQHLLLTVKSMDGYESYGECVVALKSMIGSTAQQFLTFLSHRGEETGNIRGSMKVRVPTERLGTRERLYEWISIDKDEAGAKSKAPSVSRGSQEPRSGSRKPAFTEASCPLSRLFEEPEKPPPTGRPPAPPRAAPREEPLTPRLKPEGAPEPEGVAAPPPKNSFNNPAYYVLEGVPHQLLPPEPPSPARAPVPSATKNKVAITVPAPQLGHHRHPRVGEGSSSDEESGGTLPPPDFPPPPLPDSAIFLPPSLDPLPGPVVRGRGGAEARGPPPPKAHPRPPLPPGPSPASTFLGEVASGDDRSCSVLQMAKTLSEVDYAPAGPARSALLPGPLELQPPRGLPSDYGRPLSFPPPRIRESIQEDLAEEAPCLQGGRASGLGEAGMSAWLRAIGLERYEEGLVHNGWDDLEFLSDITEEDLEEAGVQDPAHKRLLLDTLQLSK
B3: MCM10 (protein, UniProt Q7L590 1-875)
chain: MDEEEDNLSLLTALLEENESALDCNSEENNFLTRENGEPDAFDELFDADGDGESYTEEADDGETGETRDEKENLATLFGDMEDLTDEEEVPASQSTENRVLPAPAPRREKTNEELQEELRNLQEQMKALQEQLKVTTIKQTASPARLQKSPVEKSPRPPLKERRVQRIQESTCFSAELDVPALPRTKRVARTPKASPPDPKSSSSRMTSAPSQPLQTISRNKPSGITRGQIVGTPGSSGETTQPICVEAFSGLRLRRPRVSSTEMNKKMTGRKLIRLSQIKEKMAREKLEEIDWVTFGVILKKVTPQSVNSGKTFSIWKLNDLRDLTQCVSLFLFGEVHKALWKTEQGTVVGILNANPMKPKDGSEEVCLSIDHPQKVLIMGEALDLGTCKAKKKNGEPCTQTVNLRDCEYCQYHVQAQYKKLSAKRADLQSTFSGGRIPKKFARRGTSLKERLCQDGFYYGGVSSASYAASIAAAVAPKKKIQTTLSNLVVKGTNLIIQETRQKLGIPQKSLSCSEEFKELMDLPTCGARNLKQHLAKATASGIMGSPKPAIKSISASALLKQQKQRMLEMRRRKSEEIQKRFLQSSSEVESPAVPSSSRQPPAQPPRTGSEFPRLEGAPATMTPKLGRGVLEGDDVLFYDESPPPRPKLSALAEAKKLAAITKLRAKGQVLTKTNPNSIKKKQKDPQDILEVKERVEKNTMFSSQAEDELEPARKKRREQLAYLESEEFQKILKAKSKHTGILKEAEAEMQERYFEPLVKKEQMEEKMRNIREVKCRVVTCKTCAYTHFKLLETCVSEQHEYHWHDGVKRFFKCPCGNRSISLDRLPNKHCSNCGLYKWERDGMLKEKTGPKIGGETLLPRGEEHAKFLNSLK

What follows are binders tested against fAKAP350 (N-terminally 3×FLAG-tagged full-length AKAP350A) (human) (assay: affinity purification with mass spectrometry).

binding, binds:
B1
B2
B3

Results are given in words; binding and its absence hold for the method and conditions named. In cells and extracts the contact can be indirect. These calls come from enrichment with a bait or labelling near it, and not all partners need be listed.
